# Measurements taken from US20020172680A1.
# Protein sequences, listed by entry. Tags and fused reporters are not part of them. Residues count along the entry.
# UniProt Q8VDD5, residues 2-1960: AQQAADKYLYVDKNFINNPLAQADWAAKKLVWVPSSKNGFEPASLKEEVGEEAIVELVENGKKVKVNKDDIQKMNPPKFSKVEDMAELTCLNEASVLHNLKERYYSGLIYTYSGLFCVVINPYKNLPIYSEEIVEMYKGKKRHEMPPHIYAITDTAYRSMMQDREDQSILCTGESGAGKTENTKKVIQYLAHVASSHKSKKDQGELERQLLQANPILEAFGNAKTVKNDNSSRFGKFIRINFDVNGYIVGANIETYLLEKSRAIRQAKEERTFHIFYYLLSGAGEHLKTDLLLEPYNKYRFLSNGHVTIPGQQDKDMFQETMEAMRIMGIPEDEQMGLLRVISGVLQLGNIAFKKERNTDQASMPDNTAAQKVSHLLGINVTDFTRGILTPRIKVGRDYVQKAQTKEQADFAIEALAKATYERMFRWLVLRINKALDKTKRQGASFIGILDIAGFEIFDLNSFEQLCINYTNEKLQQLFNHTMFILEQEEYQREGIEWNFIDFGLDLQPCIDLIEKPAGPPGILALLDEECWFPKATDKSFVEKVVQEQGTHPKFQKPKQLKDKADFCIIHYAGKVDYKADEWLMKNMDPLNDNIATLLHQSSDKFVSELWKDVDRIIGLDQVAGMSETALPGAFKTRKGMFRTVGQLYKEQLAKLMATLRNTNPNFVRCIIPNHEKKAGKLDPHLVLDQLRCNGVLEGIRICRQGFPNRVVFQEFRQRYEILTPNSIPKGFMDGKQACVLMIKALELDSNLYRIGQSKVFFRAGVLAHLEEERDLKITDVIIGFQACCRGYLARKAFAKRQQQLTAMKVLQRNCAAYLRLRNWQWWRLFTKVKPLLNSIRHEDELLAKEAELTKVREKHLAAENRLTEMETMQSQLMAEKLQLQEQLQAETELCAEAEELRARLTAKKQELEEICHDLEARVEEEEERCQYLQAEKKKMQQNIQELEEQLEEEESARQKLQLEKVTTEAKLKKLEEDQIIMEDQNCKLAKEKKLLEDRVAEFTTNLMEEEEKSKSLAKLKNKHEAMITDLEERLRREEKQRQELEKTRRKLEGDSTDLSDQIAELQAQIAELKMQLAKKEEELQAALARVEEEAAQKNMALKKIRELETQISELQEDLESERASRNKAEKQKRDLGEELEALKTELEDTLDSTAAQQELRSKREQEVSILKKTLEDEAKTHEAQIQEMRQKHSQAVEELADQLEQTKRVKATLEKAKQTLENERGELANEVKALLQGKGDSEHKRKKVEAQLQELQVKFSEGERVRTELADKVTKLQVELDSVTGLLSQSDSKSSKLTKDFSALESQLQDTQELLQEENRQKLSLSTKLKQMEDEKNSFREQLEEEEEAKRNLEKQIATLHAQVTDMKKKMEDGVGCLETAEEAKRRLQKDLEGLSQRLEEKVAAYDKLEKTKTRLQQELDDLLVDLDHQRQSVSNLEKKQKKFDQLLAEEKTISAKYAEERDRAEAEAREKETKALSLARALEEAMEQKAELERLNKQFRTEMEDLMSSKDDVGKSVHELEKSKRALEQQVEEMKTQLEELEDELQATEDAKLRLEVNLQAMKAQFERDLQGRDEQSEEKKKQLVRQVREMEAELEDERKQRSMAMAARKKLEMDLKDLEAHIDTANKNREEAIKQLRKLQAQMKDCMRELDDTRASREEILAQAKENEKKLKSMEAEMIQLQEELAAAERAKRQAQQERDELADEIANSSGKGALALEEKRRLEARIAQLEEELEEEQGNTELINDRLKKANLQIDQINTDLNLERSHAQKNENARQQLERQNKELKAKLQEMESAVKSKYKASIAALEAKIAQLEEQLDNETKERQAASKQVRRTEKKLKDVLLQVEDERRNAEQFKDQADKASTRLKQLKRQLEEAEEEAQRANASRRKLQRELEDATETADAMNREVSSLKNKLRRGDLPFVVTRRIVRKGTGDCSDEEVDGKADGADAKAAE
# UniProt P07091, residues 2-101: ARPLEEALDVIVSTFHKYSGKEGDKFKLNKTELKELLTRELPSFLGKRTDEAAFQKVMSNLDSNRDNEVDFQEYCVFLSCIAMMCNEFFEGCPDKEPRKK
# No constants are given. Whether binding was seen depends on the method and setting. Binding seen in cells or lysates may run through a third protein. Some entries that bind do so weakly or less than the wild type.
# Molecular target: heavy chain of the non-muscle myosin (200 kDa), cellular, in CSML cell lysates (mouse) (UniProt Q8VDD5)
# Assay: co-immunoprecipitation from CSML-100 lysates with anti-Mts1 antibody
substance,measurement,value
"mts-1 protein (mouse, endogenous: CSML-100 cells, mouse spleen, serum of mice injected with CSML-100 cells) (from UniProt P07091 2-101)",binding,binds
